Reference: article PMC9563726
Results are given in words; binding and its absence hold for the method and conditions named. In cells and extracts the contact can be indirect. Some entries that bind do so weakly or less than the wild type.

By UniProt entry, the sequences of proteins in these tests, tags left out.
UniProt P48995: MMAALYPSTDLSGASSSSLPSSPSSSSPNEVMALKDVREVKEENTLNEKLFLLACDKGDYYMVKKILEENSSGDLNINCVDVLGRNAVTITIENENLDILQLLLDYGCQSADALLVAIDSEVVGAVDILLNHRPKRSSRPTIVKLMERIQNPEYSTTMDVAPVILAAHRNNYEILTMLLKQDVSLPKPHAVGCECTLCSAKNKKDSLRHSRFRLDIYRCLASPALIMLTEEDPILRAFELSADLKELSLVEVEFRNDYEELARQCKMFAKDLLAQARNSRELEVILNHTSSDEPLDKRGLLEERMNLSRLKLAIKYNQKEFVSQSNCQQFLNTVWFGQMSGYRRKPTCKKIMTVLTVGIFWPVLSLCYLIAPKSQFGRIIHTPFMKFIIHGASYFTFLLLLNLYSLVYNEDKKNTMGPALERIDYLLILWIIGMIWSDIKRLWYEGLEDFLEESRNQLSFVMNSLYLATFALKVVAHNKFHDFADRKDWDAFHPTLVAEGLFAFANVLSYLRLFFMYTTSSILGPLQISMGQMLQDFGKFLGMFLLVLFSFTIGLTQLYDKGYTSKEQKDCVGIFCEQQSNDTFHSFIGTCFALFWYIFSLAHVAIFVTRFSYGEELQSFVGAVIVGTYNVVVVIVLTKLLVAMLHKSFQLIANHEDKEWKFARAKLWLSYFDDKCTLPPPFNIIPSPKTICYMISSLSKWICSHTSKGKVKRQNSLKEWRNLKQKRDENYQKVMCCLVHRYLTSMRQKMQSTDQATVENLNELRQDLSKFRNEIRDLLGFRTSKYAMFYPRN
UniProt P27986: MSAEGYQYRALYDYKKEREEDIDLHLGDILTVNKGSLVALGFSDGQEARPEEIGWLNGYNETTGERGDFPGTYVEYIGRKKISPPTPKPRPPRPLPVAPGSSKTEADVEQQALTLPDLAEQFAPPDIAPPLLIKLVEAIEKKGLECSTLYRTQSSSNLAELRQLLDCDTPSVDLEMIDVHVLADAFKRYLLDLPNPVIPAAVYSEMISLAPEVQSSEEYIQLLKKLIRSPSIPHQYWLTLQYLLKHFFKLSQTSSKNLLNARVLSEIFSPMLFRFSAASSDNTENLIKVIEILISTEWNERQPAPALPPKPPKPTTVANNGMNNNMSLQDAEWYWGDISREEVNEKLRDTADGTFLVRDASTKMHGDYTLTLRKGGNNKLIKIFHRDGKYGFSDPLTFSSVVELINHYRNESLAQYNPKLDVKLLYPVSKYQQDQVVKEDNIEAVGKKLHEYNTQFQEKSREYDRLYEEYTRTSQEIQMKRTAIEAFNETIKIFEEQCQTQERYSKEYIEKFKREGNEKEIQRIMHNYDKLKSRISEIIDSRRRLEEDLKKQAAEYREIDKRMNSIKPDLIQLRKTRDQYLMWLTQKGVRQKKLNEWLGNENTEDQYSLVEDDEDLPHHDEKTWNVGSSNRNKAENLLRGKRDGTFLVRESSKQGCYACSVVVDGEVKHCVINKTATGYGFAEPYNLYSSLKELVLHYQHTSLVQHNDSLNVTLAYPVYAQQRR

Legend:
[1] = biological target: transient receptor potential C1 (TRPC1) (human (endogenous in PANC-1)) (UniProt P48995); test: co-IP; 500 µg PANC-1 lysate protein on Protein A magnetic beads with 1 µg TRPC1 antibody or PI3K p85α antibody, 2 h at room temperature, Western blot; cells grown at pH 7.4, pH 6.5 or pH 7.4R; non-transfected, or transfected with siCTRL or siTRPC1
[2] = biological target: transient receptor potential C1 (TRPC1) (human (endogenous in PANC-1)) (UniProt P48995); test: proximity ligation; Duolink in situ PLA on fixed, permeabilised PANC-1 cells grown at normal pH (7.4), acid-adapted (pH 6.5) or acid-recovered (pH 7.4R); non-transfected, or transfected with siCTRL or siTRPC1; puncta per cell counted
[3] = biological target: PI3K p85α subunit (human (endogenous in PANC-1)) (UniProt P27986); test: co-IP; 500 µg PANC-1 lysate protein on Protein A magnetic beads with 1 µg TRPC1 antibody or PI3K p85α antibody, 2 h at room temperature, Western blot; cells grown at pH 7.4, pH 6.5 or pH 7.4R; non-transfected, or transfected with siCTRL or siTRPC1

Row | Substance | binding [1] | binding [2] | binding [3]
1 | PI3K p85α subunit (from UniProt P27986 1-724) | binds | binds | 
2 | transient receptor potential C1 (TRPC1) (from UniProt P48995 1-793) |  |  | binds
